PubChem BioAssay AID743454, Peter MacCallum Cancer Centre, 2014

- Test: 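Knock-downs lowering viability or raising caspase 3/7 activity in vorinostat-treated resistant cells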 (primary screen)
- System: human HCT116-VR colon cancer cells, selected for vorinostat resistance
- Reagents: siRNA pool against human genes, 40 nM siRNA pool
- Time to read-out: vorinostat for 24 h, read-out about 72 h after transfection
- Treatment: vorinostat at 2.5 µM final
- Measurement: 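Cell viability by CellTiter-Fluor and caspase 3/7 activity by luminescence, each scaled to mock wells per plate, duplicates averaged, then robust z-scored over all plates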
- Scale: viability robust z-score: higher = more viable cells than screen typical; caspase robust z-score: higher = more caspase 3/7 activity than screen typical
- Call rule: 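a knock-down is a hit when classed RV1 or RV2 for lowered viability, or CA1 or CA2 for caspase activation; those lethal without drug were dropped; hits were retested singly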
The whole screen tested about 18,000 reagents; shown is a random part of them. 450 of all reagents (2.5%) count as active. 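Single biological run; no consistent viability z cut-off exists, so the class columns, not z-scores, define the calls.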

gene knocked down | PubChem SID | viability hit class | caspase hit class | viability robust z-score | caspase robust z-score | outcome
POM121 (POM121 transmembrane nucleoporin) | SID134321505 | no change | no change | -0.3 | 0.34 | inactive
CPEB3 (cytoplasmic polyadenylation element binding protein 3) | SID135623991 | no change | no change | 0.85 | 1.33 | inactive
SPAG11A (sperm associated antigen 11A) | SID135625693 | no change | no change | -0.28 | 0.44 | inactive
ERICH5 (glutamate rich 5) | SID134322340 | no change | no change | 0.2 | -0.51 | inactive
ICOS (inducible T cell costimulator) | SID134316680 | no change | no change | 0.32 | -0.7 | inactive
HSD17B2 (hydroxysteroid 17-beta dehydrogenase 2) | SID134314214 | no change | no change | 0.71 | 1.27 | inactive
OR5M1 (olfactory receptor family 5 subfamily M member 1) | SID135624855 | no change | no change | -0.28 | 0.66 | inactive
TRAPPC14 (trafficking protein particle complex subunit 14) | SID134320454 | no change | no change | 0.63 | 0.04 | inactive
CLLU1 (chronic lymphocytic leukemia up-regulated 1) | SID135625411 | no change | no change | 0.34 | -0.1 | inactive
ZNF784 (zinc finger protein 784) | SID134329418 | no change | no change | -1.82 | 3.94 | inactive
FMNL1 (formin like 1) | SID152149280 | no change | no change | 1.25 | -0.43 | inactive
NCF2 (neutrophil cytosolic factor 2) | SID152149453 | no change | no change | -0.21 | 0.24 | inactive
CIBAR2 (CBY1 interacting BAR domain containing 2) | SID134326831 | no change | no change | 0.32 | 0.68 | inactive
NME9 (NME/NM23 family member 9) | SID134311973 | no change | no change | -0.88 | 0.18 | inactive
OR10Q1 (olfactory receptor family 10 subfamily Q member 1) | SID135624589 | no change | no change | 0.02 | -0.81 | inactive
TAS2R19 (taste 2 receptor member 19) | SID152153249 | no change | no change | 0.38 | -1.15 | inactive
ECI1 (enoyl-CoA delta isomerase 1) | SID135621648 | no change | no change | -0.05 | 3.23 | inactive
CRISPLD1 (cysteine rich secretory protein LCCL domain containing 1) | SID152152221 | no change | no change | -1.81 | 2.36 | inactive
AGTR1 (angiotensin II receptor type 1) | SID152149020 | no change | no change | 0.05 | -1.07 | inactive
SULT6B1 (sulfotransferase family 6B member 1) | SID135625282 | no change | no change | -0.2 | 0.42 | inactive
SYNRG (synergin gamma) | SID134316651 | no change | no change | -0.08 | 0.59 | inactive
SP4 (Sp4 transcription factor) | SID152153303 | no change | no change | -0.65 | -0.36 | inactive
ARHGEF26 (Rho guanine nucleotide exchange factor 26) | SID134314541 | no change | no change | 1.4 | 1.31 | inactive
OLIG2 (oligodendrocyte transcription factor 2) | SID152153418 | no change | no change | -1.43 | 1.01 | inactive
ACHE (acetylcholinesterase (Yt blood group)) | SID152153048 | no change | no change | 0.4 | -0.82 | inactive
ARHGEF18 (Rho/Rac guanine nucleotide exchange factor 18) | SID134314382 | no change | no change | -0.82 | 0.74 | inactive
TRAPPC2L (trafficking protein particle complex subunit 2L) | SID135624160 | no change | no change | 0.3 | -0.24 | inactive
FAM174B (family with sequence similarity 174 member B) | SID152149760 | no change | no change | -0.41 | 2 | inactive
MICOS13 | SID134329406 | no change | no change | -0.48 | -0.8 | inactive
CCN2 (cellular communication network factor 2) | SID152150866 | no change | no change | 0.12 | 0.03 | inactive
PDCL (phosducin like) | SID152152832 | no change | no change | -0.48 | 2 | inactive
SLC2A7 | SID152149032 | no change | no change | 0.33 | -0.35 | inactive
PNPT1 (polyribonucleotide nucleotidyltransferase 1) | SID134323240 | no change | no change | -1.31 | 2.89 | inactive
RPS7 (ribosomal protein S7) | SID152151845 | RV2 (reduced viability) | no change | -4.75 | -1.68 | active
SLN (sarcolipin) | SID152151516 | no change | no change | -0.2 | -0.49 | inactive
NUDC (nuclear distribution C, dynein complex regulator) | SID134322191 | no change | no change | -0.13 | 2.79 | inactive
SETD4 (SET domain containing 4) | SID135621291 | no change | no change | -0.73 | 0.32 | inactive
AMELX (amelogenin X-linked) | SID134316757 | no change | no change | 1.1 | 0.02 | inactive
IFI6 (interferon alpha inducible protein 6) | SID152149872 | no change | no change | 0.96 | 2.16 | inactive

Active calls (from the list above):
gene knocked down | PubChem SID | viability hit class | caspase hit class | viability robust z-score | caspase robust z-score | outcome
RPS7 (ribosomal protein S7) | SID152151845 | RV2 (reduced viability) | no change | -4.75 | -1.68 | active
